Source: PubChem BioAssay AID504784 (Drosophila RNAi Screening Center, 2011)
In all, the deposit lists about 17,000 reagents; shown is a random part of those with a known target gene and a result. 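Each column is one replicate's B-score; the combined score over replicates was not deposited, so single values may mislead.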 Names joined by + are all predicted targets of the reagent. Not all columns of the deposit are shown.

Aim: 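Genome-wide knock-down for genes giving too much or too little stored lipid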 (primary screen)
Cells: Drosophila Kc167 embryonic cells
Reagents: long dsRNA against Drosophila genes, about 250 ng dsRNA per well
Duration: 4 days
Conditions: cells fed 400 µM oleic acid bound to BSA
Measured: 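Microscope images give a droplet-to-nucleus area ratio, taken as log and converted to a screen-wide B-score; higher values mean greater lipid storage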
Scale: droplet/nuclear area B-score: higher = more stored lipid (overstorage)

| target gene | PubChem SID | droplet/nuclear area B-score, replicate 1 | droplet/nuclear area B-score, replicate 2 |
| --- | --- | --- | --- |
| Psf2 | SID104180308 | 0.0702 | 0.287 |
| Gbeta76C | SID104190966 | 2.3 | -1.6 |
| CG13676 | SID104189827 | 0.0222 | -0.206 |
| CG17362 | SID104190059 | -0.408 | -1.1 |
| sba | SID104193435 | -0.491 | -1.07 |
| sba | SID104196842 | – | -0.0188 |
| CG14120 | SID104189916 | 0.826 | 0.677 |
| Ptp4E | SID104198493 | 3.04 | -1.36 |
| CRAT | SID104192315 | -1.57 | -0.216 |
| CG3156 | SID104198295 | -1.79 | -0.688 |
| crn | SID104197976 | 0.981 | 1.95 |
| crn | SID104197977 | -0.042 | 0.745 |
| crn | SID104198547 | -0.333 | -0.00339 |
| CG3119 | SID104180361 | -0.177 | 1.3 |
| WDR79 | SID104182951 | -0.345 | 0.41 |
| CG30156 | SID104184751 | -1.32 | 1.36 |
| CR33318 | SID104202306 | -0.00169 | -1.8 |
| CG13857 | SID104194499 | -0.0131 | -1.47 |
| CG42390 | SID104195658 | 0.132 | 3.41 |
| CG42390 | SID104202421 | -0.622 | 0.115 |
| CG42390 | SID104202422 | -0.293 | 0.0226 |
| Trpml + CG42638 | SID104190824 | 0.351 | -1.65 |
| CG32450 | SID104191338 | -1.73 | 1.9 |
| sty | SID104188529 | 0.202 | 0.039 |
| sty | SID104202351 | 1.04 | 1.14 |
| Cpsf6 | SID104190573 | 3.88 | 4.06 |
| Gas8 | SID104202243 | -1.41 | 0.768 |
| pdgy | SID104198856 | 0.945 | -0.235 |
| pdgy | SID104199133 | 3.95 | 0.121 |
| Gr64d + Gr64e | SID104188238 | -0.598 | -3.31 |
| CG6696 | SID104199796 | 1.24 | 0.621 |
| akirin | SID104190792 | -0.0494 | -0.0527 |
| CG32576 | SID104198928 | 0.0547 | 0.356 |
| LManIV | SID104183014 | 0.667 | -0.415 |
| Npc2f | SID104195772 | -0.0895 | 0.138 |
| Mnn1 | SID104183160 | 0.0927 | -0.463 |
| Lcp3 | SID104187249 | 0.181 | -0.964 |
| ppl | SID104191691 | -0.567 | -0.534 |
| hb | SID104196755 | 1.95 | -0.473 |
| ReepB | SID104186942 | 1.42 | -0.215 |

The list goes on, starting with the last 9 of the part before.
| target gene | PubChem SID | droplet/nuclear area B-score, replicate 1 | droplet/nuclear area B-score, replicate 2 |
| --- | --- | --- | --- |
| akirin | SID104190792 | -0.0494 | -0.0527 |
| CG32576 | SID104198928 | 0.0547 | 0.356 |
| LManIV | SID104183014 | 0.667 | -0.415 |
| Npc2f | SID104195772 | -0.0895 | 0.138 |
| Mnn1 | SID104183160 | 0.0927 | -0.463 |
| Lcp3 | SID104187249 | 0.181 | -0.964 |
| ppl | SID104191691 | -0.567 | -0.534 |
| hb | SID104196755 | 1.95 | -0.473 |
| ReepB | SID104186942 | 1.42 | -0.215 |
| Sk2 | SID104188348 | 0.342 | 0.897 |
| CG5391 | SID104195582 | -0.136 | -0.118 |
| PPYR1 | SID104199404 | -0.592 | -0.264 |
| CG10164 | SID104193989 | 1.2 | -0.425 |
| CG43996 | SID104199248 | -0.684 | 0.0547 |
| CG43996 | SID104199249 | 0.961 | -0.59 |
| CG15696 | SID104194910 | 0.0223 | 0.0345 |
| CG16896 | SID104184076 | -1.13 | 0.00793 |
| CG3841 | SID104182522 | -1.11 | -1.07 |
| Mul1 | SID104187966 | -2.25 | 2.48 |
| GILT1 | SID104196357 | -0.0806 | 10 |
| CG7945 | SID104190726 | -2.37 | -1.09 |
| CG7016 | SID104195966 | -1.49 | 0.545 |
| CG9162 (retired record) | SID104182943 | 0.1 | -2.14 |
| fzr2 | SID104184072 | -0.997 | -0.82 |
| Rab10 | SID104200364 | -1.94 | -0.358 |
| RhoGAP71E | SID104190024 | 0.184 | 1.49 |
| RhoGAP71E | SID104190629 | -1.32 | -0.155 |
| RhoGAP71E | SID104190630 | -0.908 | -0.22 |
| sut2 | SID104187493 | 1.15 | -1.32 |
| Dcp-1 | SID104184401 | 0.694 | -0.634 |
| Spn43Ad | SID104186562 | -0.461 | -0.00213 |
| Or67c | SID104191034 | 0.0465 | -0.842 |
| NfI | SID104196950 | -1.23 | 0.292 |
| smp-30 | SID104196851 | -0.737 | -0.3 |
| CG8236 | SID104196191 | 0.376 | 0.558 |
| CG9394 | SID104184342 | -2.09 | 0.0724 |
| Pka-C1 | SID104183191 | 1.54 | -1.24 |
| Pka-C1 | SID104202671 | 0.643 | -0.468 |
| CG4822 | SID104180461 | -1.92 | -1.19 |
| CG8087 | SID104196167 | -1.67 | 2.33 |
| CG14105 | SID104189899 | -0.511 | -0.401 |
| CG14151 | SID104189945 | 0.0251 | -0.461 |
| CG14229 | SID104199377 | 0.169 | 1.18 |
| CG14229 | SID104202506 | 2.33 | 1.35 |
| CdGAPr | SID104183081 | -0.526 | -0.0369 |
| CG32773 (retired record) | SID104197122 | 3.02 | 3.68 |
| Hmgs | SID104186658 | 0.0307 | 0.0162 |
| Calx | SID104193249 | 0.263 | -0.41 |
| Calx | SID104193251 | -1.64 | 0.551 |
| Calx | SID104196391 | 1.54 | 0.651 |
| Calx | SID104201495 | 1.61 | 0.441 |
| TwdlR | SID104194528 | -0.843 | 1.26 |
